# Experimental data reported in PubChem BioAssay AID493014 (National Center for Advancing Translational Sciences (NCATS), 2011).
# The list shows a part of the results. Further columns of the screen follow, without active or inactive calls. Compounds called inactive in the main read-out are mostly missing here. The note in brackets gives the kind of curve behind each potency; many fits are weak.
# Assay: qHTS Assay to Find Inhibitors of Chronic Active B-Cell Receptor Signaling
# Conditions: ABC-DLBCL IkBa-CBG/CBR reporter, luminescence ratio (green luciferase fused to IkBa over red control in TMD8 lymphoma cells), 4 h
# How it was run: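 Compounds up to 46 uM were incubated four hours with TMD8 cells whose green CBG68 luciferase is fused to IkappaBalpha; red CBR luminescence normalised the signal, and concentration-effect curves were fitted to fusion, red and ratio data.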
# [1] = measured here: CBR red luminescence, cell number
# [2] = measured here: IkBa-CBG green luminescence
Compound,AC50 [1],AC50 [2]
O=C1NC(c2cccs2)C(C(=O)c2ccccc2)C(O)(C(F)(F)F)N1 (stereo unspecified),"35.5 µM [rising, partial curve, poor fit]",–
COc1cc2cc(C(=O)N3CCOCC3)cc(-c3ccc(C)cc3)c2cc1OC,–,"20 µM [falling, single point]"
COc1ccc(NC(=O)c2ccco2)cc1N,"8.91 µM [falling, partial curve, poor fit]",–
O=C(Nc1ccc(Cl)c(Cl)c1)N1N=CCC1c1ccccc1 (stereo unspecified),"7.08 µM [rising, partial curve, poor fit]",–
CC12CCC(C(=O)N(NC(=O)c3cc(Cl)ccc3O)C1=O)C2(C)C (stereo unspecified),"3.55 µM [falling, partial curve, poor fit]",–
CC(NC(=O)c1ccc(OC2CCN(C(=O)c3cccnc3)CC2)cc1)C1CC1 (stereo unspecified),"0.1 µM [rising, full curve, poor fit]",–
COc1ccc(CCNC(=O)c2ccccc2OCc2ccccc2)cc1,"10 µM [falling, partial curve]",–
CCOC(=O)c1ccc(OCC2c3cc(OC)c(OC)cc3CCN2C(=O)Cc2ccc(F)cc2)cc1 (stereo unspecified),"7.08 µM [falling, partial curve]",–
CC1CN=C(N(C(=O)Nc2ccccc2)c2ccc(F)cc2)S1 (stereo unspecified),"29.1 µM [falling, single point]",–
Nc1cc(OC(=O)c2ccccc2Br)nn1S(=O)(=O)c1ccccc1,"17.8 µM [falling, partial curve]",–
CCCCOC(=O)NS(=O)(=O)c1sc(CC(C)C)cc1-c1ccc(Cn2c(CC)nc3c(C)cc(C)nc32)cc1,"29.1 µM [falling, single point]",–
COc1ccc(O)c(C(=O)c2cnn(-c3ccc(Cl)cc3)c2)c1,"35.5 µM [falling, partial curve, poor fit]",–
Fc1ccc(-c2cc3nc(-c4ccccc4)cc(N4CCOCC4)n3n2)cc1,"0.164 µM [falling, full curve, poor fit]",–
COc1ccccc1NC(=O)CSc1nnc(-c2ccccc2)o1,"2.06 µM [rising, partial curve, poor fit]",–
CC(C)C(=O)NC(c1ccco1)c1ccc2cccnc2c1O (stereo unspecified),"35.5 µM [falling, single point]",–
Cc1nn(-c2ccccc2)cc1C(c1c(N)[nH]c(=S)[nH]c1=O)c1c(N)[nH]c(=S)[nH]c1=O,"0.398 µM [rising, partial curve, poor fit]",–
CCCC(=O)OCCNc1cc(SCCC(=O)OC)c2nonc2c1[N+](=O)[O-],"29.1 µM [falling, single point]",–
CC(NC(=O)C1CCN(C(=O)Nc2ccccc2)CC1)c1ccccc1Cl (stereo unspecified),"23.1 µM [rising, single point]",–
Cc1ccccc1OCC(O)Cn1c(Br)nc2c1c(=O)[nH]c(=O)n2C (stereo unspecified),"2.82 µM [rising, single point]",–
CNc1c([N+](=O)[O-])cnn1-c1ccccc1Cl,"7.94 µM [rising, partial curve, poor fit]",–
COc1ccc(OCc2nnc(NC(=O)Nc3ccc(F)cc3)s2)cc1,"15.8 µM [rising, partial curve, poor fit]",–

Compound,AC50 [1],AC50 [2]
CC(C)(C)C1CCC(=NNC(=S)NCc2ccccc2)CC1 (stereo unspecified),"12.6 µM [falling, partial curve, poor fit]","35.5 µM [falling, single point]"
CC(C)(C)NC(=O)NC(=O)COC(=O)C1c2ccccc2Oc2ccccc21,"17.8 µM [falling, partial curve, poor fit]",–
CN1CCN(C2CC(=O)N(c3ccc4c(c3)OCCO4)C2=O)CC1 (stereo unspecified),"16.4 µM [rising, single point]",–
CNC(=O)Cn1nc(-c2ccc(C)c(S(=O)(=O)N(C)C)c2)c2ccccc2c1=O,"18.4 µM [rising, single point]",–
CCN1CCN(Cc2c(O)ccc3c2O/C(=C\C=C\c2ccccc2)C3=O)CC1,"16.4 µM [falling, partial curve]",–
CCOc1ccc(CN(C)C(=O)CNC(=O)C2CCCCC2)cc1OC,"31.6 µM [rising, single point]",–
Cc1cccc(Cn2cccc2/C=C2/C(=N)N3C=CSC3=NC2=O)c1,"20.6 µM [rising, single point]",–
CS(=O)(=O)Nc1cccc(C2=NN(C(=O)c3ccc(F)cc3)C(c3cccs3)C2)c1 (stereo unspecified),"22.4 µM [falling, single point]",–
COc1cc2c(cc1Cl)/C(=C\CCN(C)C)c1ccccc1S2,"32.6 µM [falling, single point]",–
CC(C)(C)C(=O)/C(=C\c1cccc([N+](=O)[O-])c1)n1cncn1,"2.31 µM [falling, full curve]","7.31 µM [rising, partial curve, poor fit]"
CCOC(=O)c1c(C)oc2c1cc(NS(=O)(=O)c1ccc(C(=O)O)cc1)c1ccccc12,"35.5 µM [rising, single point]","35.5 µM [falling, partial curve, poor fit]"
Cc1ccc(NC(=O)c2cccc(S(=O)(=O)N3CCCC3)c2)nc1,"23.1 µM [falling, single point]",–
O=C(NCc1nnc(SCC(=O)N2CCN(c3ccccc3)CC2)o1)c1c(F)cccc1F,"20 µM [falling, single point]",–
O=C(c1ccc(N2CCCC2)c([N+](=O)[O-])c1)N1CCc2ccccc2C1,"6.51 µM [rising, partial curve, poor fit]",–
O=C(O)c1cccc(Cn2c(Cl)c(/C=N/Nc3ccccc3)sc2=O)c1,"11.2 µM [falling, partial curve, poor fit]",–
O=C(/C=C/c1cccs1)c1ccc(NC(=O)c2ccccc2F)cc1,–,"18.4 µM [falling, partial curve, poor fit]"
Cc1nn(-c2ccccc2)c(Cl)c1/C=C1\SC(=S)NC1=O,"16.4 µM [falling, partial curve]",–
Cc1ccc(S(=O)(=O)n2nc(OC(=O)C(C)(C)C)cc2N)cc1,"15.8 µM [rising, single point]","20 µM [falling, single point]"
Cc1c(C(=S)Nc2ccccc2)cnn1-c1ccccc1,"0.562 µM [rising, full curve, poor fit]",–
O=C(O)CCCCCNc1nc(-c2ccccc2)nc2ccccc12,"22.4 µM [falling, single point]",–
CCOc1ccccc1Nc1nc2ccccc2[nH]1,"8.2 µM [falling, partial curve, poor fit]",–

# Reformatted with bars between the fields: entries from further up
Compound | AC50 [1] | AC50 [2]
CC(C)C(=O)NC(c1ccco1)c1ccc2cccnc2c1O (stereo unspecified) | 35.5 µM [falling, single point] | –
CC(C)(C)C1CCC(=NNC(=S)NCc2ccccc2)CC1 (stereo unspecified) | 12.6 µM [falling, partial curve, poor fit] | 35.5 µM [falling, single point]
Cc1nn(-c2ccccc2)c(Cl)c1/C=C1\SC(=S)NC1=O | 16.4 µM [falling, partial curve] | –
O=C(O)CCCCCNc1nc(-c2ccccc2)nc2ccccc12 | 22.4 µM [falling, single point] | –

# (list continues)

Compound,AC50 [1],AC50 [2]
O=C(Nc1ccc2nc3n(c(=O)c2c1)CCCC3)c1cccc([N+](=O)[O-])c1,"0.58 µM [rising, partial curve, poor fit]",–
O=C(NNC(=O)c1ccc([N+](=O)[O-])o1)c1ccccc1,"8.91 µM [falling, partial curve, poor fit]",–
CS(=O)(=O)N1CCN(c2nc3ccccc3s2)CC1,"1.26 µM [rising, full curve, poor fit]",–
CC(=O)Nc1ccc2nc(NC(=O)c3ccco3)sc2c1,"10 µM [falling, partial curve]",–
CCC(=O)NC(c1ccccc1OC)c1ccc2cccnc2c1O (stereo unspecified),"5.8 µM [falling, partial curve, poor fit]",–
Oc1cccc2ccc(N3CCOCC3)nc12,"2.82 µM [rising, partial curve, poor fit]",–
Cc1ccnc(NC(=O)CNC(=O)c2ccc(Br)o2)c1,"23.1 µM [falling, partial curve]",–
O=C(CSc1nc2c(sc3ccccc32)c(=O)n1-c1ccccc1)NCc1ccco1,"29.1 µM [falling, single point]",–
C/C(CCc1ccc2c(c1)OCO2)=N\N=C(/N)SC1CC(=O)N(c2ccc(Cl)cc2)C1=O (stereo unspecified),"3.16 µM [falling, full curve, poor fit]",–
COC(=O)c1ccsc1NC(=O)CSc1nnnn1-c1ccccc1SC,"0.058 µM [falling, full curve, poor fit]",–
CCOc1ccc(-c2noc(CCCC(=O)NC3CCCC3)n2)cc1OC,"14.1 µM [falling, partial curve, poor fit]",–
Cc1cc(N2CCCCC2)n2ncc(-c3ccccc3)c2n1,"1.26 µM [rising, full curve, poor fit]",–
Cc1cc(C)c(C)c(S(=O)(=O)NNC(=O)c2cccc(S(=O)(=O)N3CCOCC3)c2)c1C,"3.26 µM [rising, single point]",–
Cc1nc2ccc(NC(=O)c3ccc([N+](=O)[O-])cc3)cc2s1,"2.91 µM [rising, partial curve]",–
Cc1cc(C(=O)COC(=O)c2cccn2C)c(C)n1Cc1ccco1,"14.1 µM [falling, single point]",–
CCOC(=O)N/N=C\C=C\c1ccc2c(c1)OCO2,"23.1 µM [falling, single point]",–
N#Cc1ccccc1NCc1ccccc1,"12.6 µM [rising, single point]",–
COc1ccc2c(c1)OC[C@H]1[C@H]2N2C(=O)CN(Cc3ccc(Cl)cc3)C(=O)[C@@]2(C)[C@H]1c1ccccc1,"29.1 µM [falling, partial curve, poor fit]",–
O=C(Nc1ccccc1OC(F)F)c1cc2c(s1)CCC2,"6.51 µM [rising, partial curve]",–
CCOC(=O)c1cc2c(=O)c3ccccc3oc2nc1C,"35.5 µM [rising, single point]",–
